In PubChem BioAssay AID330 (DTP/NCI, 2004):
The list does not hold the whole screen: it gathers tests that were run many times, whatever their T/C, doses with no T/C, and many T/C values between a quarter and a half above the control. Other doses and runs of a compound stand elsewhere. T/C gives the treated animals as a percentage of the vehicle group. Some doses have a count of surviving animals in place of a T/C: the source holds a T/C of zero for them, seemingly a mark for toxic or unscored doses. Some doses without a T/C left all or most animals alive at the check, yet need not have been tolerated: survival well below the control is almost never listed, so the zero probably covers shortened survival too. Counts of survivors are from the toxicity check (mostly the fifth day) where no day follows; animals may have died later. Schedule codes are those of the source, read here as Q, the interval in days (D) or hours (H), X, the number of doses. Some entries hold several experiments; the results are listed from low to high. Brackets with × stand for listed records that agree. For survival time, this PubChem deposit counts one and a half times the control or more as active, and values a quarter to a half above the control carry no call in these data; other NCI protocols may use other cut-offs. Some T/C values carry the count of animals alive at the toxicity check (mostly the fifth day); without a count, all were alive then.

Tested on: P388 leukemia ip, CD2F1 mice, survival T/C
Experiment: NCI In Vivo Anticancer Drug Screen. Data for tumor model P388 Leukemia (intraperitoneal) in CD2F1 (CDF1) mice
Conditions: T/C endpoint: median survival time, higher T/C = longer survival
[1] = dose: 16.0 mg/kg/injection, schedule: Q01DX009 (ip), vehicle: water

SMILES: COc1cccc2c1C(=O)c1c(O)c3c(c(O)c1C2=O)C[C@@](O)(/C(C)=N/NC(=O)c1ccccc1)C[C@@H]3OC1CC(N)C(O)C(C)O1 (some centres not stated)
- T/C (dose: 0.25 mg/kg/injection, schedule: Q01DX009 (ip), vehicle: water): 102, 106, 109, 120, 123, 127, 135 (2×), 136, 143, 149, 153, 157, 158 % of control
- T/C (dose: 0.5 mg/kg/injection, schedule: Q01DX009 (ip), vehicle: water, evaluated on day 30): 110, 111, 125, 126 (2×), 129, 136, 137, 138, 141, 146, 148, 149, 151, 153, 155, 172 % of control
- T/C (dose: 0.5 mg/kg/injection, schedule: Q01DX009 (ip), vehicle: water, evaluated on day 35): 148 % of control
- T/C (dose: 0.5 mg/kg/injection, schedule: Q01DX009 (ip), vehicle: water, evaluated on day 45): 131 % of control
- T/C (dose: 1.0 mg/kg/injection, schedule: Q01DX005 (ip), vehicle: suspension in saline): 131 % of control
- T/C (dose: 1.0 mg/kg/injection, schedule: Q01DX009 (ip), vehicle: water, evaluated on day 30): 127, 132, 136, 139, 142, 145, 146, 150 (2×), 152, 153, 154, 155, 156, 157, 165, 180 % of control
- T/C (dose: 1.0 mg/kg/injection, schedule: Q01DX009 (ip), vehicle: water, evaluated on day 35): 169 % of control
- T/C (dose: 1.0 mg/kg/injection, schedule: Q01DX009 (ip), vehicle: water, evaluated on day 45): 134 % of control
- T/C (dose: 1.0 mg/kg/injection, schedule: Q01DX009 (ip), vehicle: water, evaluated on day 60): 145 % of control
- T/C (dose: 1.0 mg/kg/injection, schedule: Q04DX003 (ip), vehicle: water): 135 % of control
- T/C (dose: 1.08 mg/kg/injection, schedule: Q01DX009 (ip), vehicle: saline): 125 % of control
- T/C (dose: 1.3 mg/kg/injection, schedule: Q01DX001 (ip), vehicle: water): 135 % of control
- T/C (dose: 1.8 mg/kg/injection, schedule: Q01DX001 (ip), vehicle: water): 138 % of control
- T/C (dose: 1.8 mg/kg/injection, schedule: Q01DX009 (ip), vehicle: saline): 141 % of control [9 of 10 alive]
- T/C (dose: 1.94 mg/kg/injection, schedule: Q04DX003 (ip), vehicle: water): 147 % of control
- T/C (dose: 2.0 mg/kg/injection, schedule: Q01DX005 (ip), vehicle: suspension in saline): 137 % of control
- T/C (dose: 2.0 mg/kg/injection, schedule: Q01DX009 (ip), vehicle: water, evaluated on day 30): 132, 140, 142, 145, 148, 155, 160, 163, 164, 165, 169, 170, 172, 173, 180, 182, 184 % of control
- T/C (dose: 2.0 mg/kg/injection, schedule: Q01DX009 (ip), vehicle: water, evaluated on day 35): 194 % of control
- T/C (dose: 2.0 mg/kg/injection, schedule: Q01DX009 (ip), vehicle: water, evaluated on day 45): 166 % of control
- T/C (dose: 2.0 mg/kg/injection, schedule: Q01DX009 (ip), vehicle: water, evaluated on day 60): 164 % of control
- T/C (dose: 2.4 mg/kg/injection, schedule: Q01DX001 (ip), vehicle: water): 148 % of control
- T/C (dose: 4.0 mg/kg/injection, schedule: Q01DX005 (ip), vehicle: suspension in saline): 146 % of control
- T/C (dose: 4.0 mg/kg/injection, schedule: Q01DX005 (iv), vehicle: suspension in saline): 135 % of control
- T/C (dose: 4.0 mg/kg/injection, schedule: Q01DX009 (ip), vehicle: water, evaluated on day 30): 89, 104, 133, 152, 155, 165, 166, 169, 170, 175, 184, 185, 190, 194, 198, 200, 209 % of control
- T/C (dose: 4.0 mg/kg/injection, schedule: Q01DX009 (ip), vehicle: water, evaluated on day 35): 287 % of control
- T/C (dose: 4.0 mg/kg/injection, schedule: Q01DX009 (ip), vehicle: water, evaluated on day 45): 186 % of control
- T/C (dose: 4.0 mg/kg/injection, schedule: Q01DX009 (ip), vehicle: water, evaluated on day 60): 182 % of control
- T/C (dose: 5.0 mg/kg/injection, schedule: Q01DX009 (ip), vehicle: saline): 136 % of control
- T/C (dose: 6.0 mg/kg/injection, schedule: Q01DX001 (ip), vehicle: clinical formulation): 144 % of control
- T/C (dose: 6.0 mg/kg/injection, schedule: Q04DX003 (ip), vehicle: water): 126 % of control
- T/C (dose: 8.0 mg/kg/injection, schedule: Q01DX005 (iv), vehicle: saline): 126 % of control [5 of 6 alive]
- T/C (dose: 8.0 mg/kg/injection, schedule: Q01DX009 (ip), vehicle: water, evaluated on day 30): 89, 100, 103, 111, 137, 140, 147, 181, 184, 186, 205, 235, 245 (2×), 247 % of control
- T/C (dose: 8.0 mg/kg/injection, schedule: Q01DX009 (ip), vehicle: water, evaluated on day 35): 95 % of control
- T/C (dose: 8.0 mg/kg/injection, schedule: Q01DX009 (ip), vehicle: water, evaluated on day 45): 228 % of control
- T/C (dose: 8.0 mg/kg/injection, schedule: Q01DX009 (ip), vehicle: water, evaluated on day 60): 216 % of control
- survivor count (dose: 8.0 mg/kg/injection, schedule: Q01DX009 (ip), vehicle: water): 6 of 6
- T/C (dose: 12.0 mg/kg/injection, schedule: Q04DX003 (ip), vehicle: water): 142 % of control
- survivor count (dose: 13.9 mg/kg/injection, schedule: Q01DX009 (ip), vehicle: saline): 9 of 10
- T/C (dose: 15.0 mg/kg/injection, schedule: Q04DX003 (ip), vehicle: water): 127 % of control
- T/C (dose: 16.0 mg/kg/injection, schedule: Q01DX005 (ip), vehicle: saline): 131 % of control
- survivor count (dose: 16.0 mg/kg/injection, schedule: Q01DX009 (ip), vehicle: other): 10 of 10
- T/C [1]: 93, 184, 192, 227 % of control
- survivor count [1]: 10 of 10 and 6 of 6 (2×)
- T/C (dose: 16.0 mg/kg/injection, schedule: Q04DX003 (ip), vehicle: water): 138 % of control
- survivor count (dose: 22.2 mg/kg/injection, schedule: Q04DX003 (ip), vehicle: saline): 9 of 10
- T/C (dose: 25.0 mg/kg/injection, schedule: Q04DX003 (ip), vehicle: saline): 125 % of control
- survivor count (dose: 37.0 mg/kg/injection, schedule: Q01DX001 (ip), vehicle: saline): 5 of 10
